Data as given in patent US20230357430A1, “RNF167 AND CASTOR1 AS NOVEL MTOR TARGETS” (UNIVERSITY OF PITTSBURGH - OF THE COMMONWEALTH SYSTEM OF …, priority 2020, published 2023).
Results are given in words; binding and its absence hold for the method and conditions named. In cells and extracts the contact can be indirect. A result given as binding can be weak or reduced; the word gives no strength. Where a sequence is shown, tags or fusion partners need not be part of it.

Assays:
endogenous AKT [1] = assay: co-immunoprecipitation and immunoblotting (FIGS. 8A-8F)
endogenous AKT [2] = assay: co-immunoprecipitation and immunoblotting (FIGS. 8B, 8D)

B1: human CASTOR1 wild type (Flag-CASTOR1 WT) (other, UniProt Q8WTX7 1-329, looked up)
chain: MELHILEHRVRVLSVARPGLWLYTHPLIKLLFLPRRSRCKFFSLTETPEDYTLMVDEEGFKELPPSEFLQVAEATWLVLNVSSHSGAAVQAAGVTKIARSVIAPLAEHHVSVLMLSTYQTDFILVREQDLSVVIHTLAQEFDIYREVGGEPVPVTRDDSSNGFPRTQHGPSPTVHPIQSPQNRFCVLTLDPETLPAIATTLIDVLFYSHSTPKEAASSSPEPSSITFFAFSLIEGYISIVMDAETQKKFPSDLLLTSSSGELWRMVRIGGQPLGFDECGIVAQIAGPLAAADISAYYISTFNFDHALVPEDGIGSVIEVLQRRQEGLAS
notes: Expressed in cells and pulled down from lysates; also called HA-CASTOR1; cytosolic arginine sensor for mTORC1 subunit 1; not shown: N-terminal Flag tag
binding (endogenous AKT [1]): binds
binding (endogenous AKT [2]): binds
